# Assay results from article PMC7257233.
# These are yes or no findings as the source states them, for the method shown. In cells and extracts the contact can be indirect. Some binding calls cover weakened binding; strength is not graded here. Tags and fused reporters may be left off the sequences shown.
# B1: FLAG-tagged mutant TRAF3 M7 (TRAF3 M7-flag) (protein, UniProt Q13114 1-568)
# chain: MESSKKMDSPGALQTNPPLKLHTDRSAGTPVFVPEQGGYKEKFVKTVEDKYKAEKAHLVLCSPKQTECGHRFCESCMAALLSSSSPKCTACQESIVKDKVFKDNCCKREILALQIYCRNESRGCAEQLMLGHLLVHLKNDCHFEELPCVRPDCKEKVLRKDLRDHVEKACKYREATCSHCKSQVPMIALQKHEDTDCPCVVVSCPHKCSVQTLLRSELSAHLSECVNAPSTCSFKRYGCVFQGTNQQIKAHEASSAVQHVNLLKEWSNSLEKKVSLLQNESVEKNKSIQSLHNQICSFEIEIERQKEMLRNNESKILHLQRVIDSQAEKLKELDKEIRPFRQNWEEADSMKSSVESLQNRVTELESVDKSAGQVARNTGLLESQLSRHDQMLSVHDIRLADMDLRFQVLETASYNGVLIWKIRDYKRRKQEAVMGKTLSLYSQPFYTGYFGYKMCARVYLNGDGMGKGTHLSLFFVIMRGEYDALLPWPFKQKVTLMLMDQGSSRRHLGDAFKPDPNSSSFKKPTGEMNIASGCPVFVAQTVLENGTYIKDDTIFIKVIVDTSDLPDP
# Biological target: T1, His-tagged GMEB1 protein (GMEB1-His) (UniProt Q9Y692)
# T1 sequence: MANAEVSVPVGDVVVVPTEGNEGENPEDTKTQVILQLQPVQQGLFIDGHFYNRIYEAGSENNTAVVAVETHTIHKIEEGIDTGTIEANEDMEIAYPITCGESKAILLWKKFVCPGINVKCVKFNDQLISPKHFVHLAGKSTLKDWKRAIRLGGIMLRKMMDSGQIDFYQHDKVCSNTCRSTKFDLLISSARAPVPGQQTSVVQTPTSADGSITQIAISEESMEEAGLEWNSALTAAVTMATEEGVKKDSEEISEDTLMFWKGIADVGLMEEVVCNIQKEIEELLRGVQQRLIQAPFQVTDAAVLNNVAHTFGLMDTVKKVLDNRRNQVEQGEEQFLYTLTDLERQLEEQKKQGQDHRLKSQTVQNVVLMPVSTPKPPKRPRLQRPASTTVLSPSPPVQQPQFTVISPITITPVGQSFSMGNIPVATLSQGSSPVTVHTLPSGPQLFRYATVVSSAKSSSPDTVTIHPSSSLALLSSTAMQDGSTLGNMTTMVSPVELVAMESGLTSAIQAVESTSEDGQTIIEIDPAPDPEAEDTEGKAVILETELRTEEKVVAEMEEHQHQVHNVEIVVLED
# Assay: co-IP; HEK293FT cells co-transfected with GMEB1-His and FLAG-tagged TRAF3 forms; lysed in 0.5% NP40 buffer (25 mM Tris-HCl pH 7.4, 150 mM NaCl, 5 mM EDTA); GMEB1-His precipitated with Ni-NTA beads; blot with anti-FLAG and anti-His
binder,measurement,value
B1,binding,binds
